Measured values: publication PMC4678829
Results are given in words; binding and its absence hold for the method and conditions named.

Biological target: Staphylococcus aureus thioredoxin (Trx), wild type (Staphylococcus aureus) (UniProt P0A0K6)
Test: SEC; both purified

B1: Staphylococcus aureus thioredoxin (Trx), wild type (enzyme, UniProt P0A0K6 1-104)
chain: MAIVKVTDADFDSKVESGVQLVDFWATWCGPCKMIAPVLEELAADYEGKADILKLDVDENPSTAAKYEVMSIPTLIVFKDGQPVDKVVGFQPKENLAEVLDKHL
  binding: no binding
